Assay results published in publication PMC9456107, “DNA Motifs and an Accessory CRISPR Factor Determine Cas1 Binding and Integration Activity in Sulfolobus islandicus”.
These are yes or no findings as the source states them, for the method shown. Binding seen in cells or lysates may run through a third protein. Here binding means that the protein was enriched with, or labelled near, the bait; the list need not be complete. Sequences can lack the tags named with a protein.

Molecular target: T1, plasmid-borne His-tagged Cas1 (S. islandicus REY15A) (UniProt F0NGP4)
T1 sequence: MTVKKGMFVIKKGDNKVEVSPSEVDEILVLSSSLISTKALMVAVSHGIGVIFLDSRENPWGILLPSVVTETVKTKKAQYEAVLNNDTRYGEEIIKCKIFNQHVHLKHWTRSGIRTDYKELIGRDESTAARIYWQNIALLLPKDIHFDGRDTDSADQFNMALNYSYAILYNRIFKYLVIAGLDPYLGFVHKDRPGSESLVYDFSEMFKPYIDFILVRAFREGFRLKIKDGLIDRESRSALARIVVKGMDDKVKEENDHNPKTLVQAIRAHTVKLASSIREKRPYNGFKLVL
Assay: affinity purification with mass spectrometry; in vivo pull-down: His-tagged Cas1 expressed from pSeSD in S. islandicus; soluble lysate on Ni-NTA agarose beads; 20 mM HEPES-NaOH pH 7.6, 500 mM NaCl; wash with 100 mM imidazole, elution with 500 mM imidazole; eluate to mass spectrometry

- binding: binds
Substance: Csa3a
